# No constants are given. Whether binding was seen depends on the method and setting. Binding seen in cells or lysates may run through a third protein. Here binding means that the protein was enriched with, or labelled near, the bait; the list need not be complete.
# B1: SLC5A6 (protein, UniProt Q9Y289 1-635)
# chain: MSVGVSTSAPLSPTSGTSVGMSTFSIMDYVVFVLLLVLSLAIGLYHACRGWGRHTVGELLMADRKMGCLPVALSLLATFQSAVAILGVPSEIYRFGTQYWFLGCCYFLGLLIPAHIFIPVFYRLHLTSAYEYLELRFNKTVRVCGTVTFIFQMVIYMGVVLYAPSLALNAVTGFDLWLSVLALGIVCTVYTALGGLKAVIWTDVFQTLVMFLGQLAVIIVGSAKVGGLGRVWAVASQHGRISGFELDPDPFVRHTFWTLAFGGVFMMLSLYGVNQAQVQRYLSSRTEKAAVLSCYAVFPFQQVSLCVGCLIGLVMFAYYQEYPMSIQQAQAAPDQFVLYFVMDLLKGLPGLPGLFIACLFSGSLSTISSAFNSLATVTMEDLIRPWFPEFSEARAIMLSRGLAFGYGLLCLGMAYISSQMGPVLQAAISIFGMVGGPLLGLFCLGMFFPCANPPGAVVGLLAGLVMAFWIGIGSIVTSMGSSMPPSPSNGSSFSLPTNLTVATVTTLMPLTTFSKPTGLQRFYSLSYLWYSAHNSTTVIVVGLIVSLLTGRMRGRSLNPATIYPVLPKLLSLLPLSCQKRLHCRSYGQDHLDTGLFPEKPRNGVLGDSRDKEAMALDGTAYQGSSSTCILQETSL
# B2: SLC16A10 (protein, UniProt Q8TF71 1-515)
# chain: MVLSQEEPDSARGTSEAQPLGPAPTGAAPPPGPGPSDSPEAAVEKVEVELAGPATAEPHEPPEPPEGGWGWLVMLAAMWCNGSVFGIQNACGVLFVSMLETFGSKDDDKMVFKTAWVGSLSMGMIFFCCPIVSVFTDLFGCRKTAVVGAAVGFVGLMSSSFVSSIEPLYLTYGIIFACGCSFAYQPSLVILGHYFKKRLGLVNGIVTAGSSVFTILLPLLLRVLIDSVGLFYTLRVLCIFMFVLFLAGFTYRPLATSTKDKESGGSGSSLFSRKKFSPPKKIFNFAIFKVTAYAVWAVGIPLALFGYFVPYVHLMKHVNERFQDEKNKEVVLMCIGVTSGVGRLLFGRIADYVPGVKKVYLQVLSFFFIGLMSMMIPLCSIFGALIAVCLIMGLFDGCFISIMAPIAFELVGAQDVSQAIGFLLGFMSIPMTVGPPIAGLLRDKLGSYDVAFYLAGVPPLIGGAVLCFIPWIHSKKQREISKTTGKEKMEKMLENQNSLLSSSSGMFKKESDSII
# B3: SLC35A2 (protein, UniProt P78381 1-396)
# chain: MAAVGAGGSTAAPGPGAVSAGALEPGTASAAHRRLKYISLAVLVVQNASLILSIRYARTLPGDRFFATTAVVMAEVLKGLTCLLLLFAQKRGNVKHLVLFLHEAVLVQYVDTLKLAVPSLIYTLQNNLQYVAISNLPAATFQVTYQLKILTTALFSVLMLNRSLSRLQWASLLLLFTGVAIVQAQQAGGGGPRPLDQNPGAGLAAVVASCLSSGFAGVYFEKILKGSSGSVWLRNLQLGLFGTALGLVGLWWAEGTAVATRGFFFGYTPAVWGVVLNQAFGGLLVAVVVKYADNILKGFATSLSIVLSTVASIRLFGFHVDPLFALGAGLVIGAVYLYSLPRGAAKAIASASASASGPCVHQQPPGQPPPPQLSSHRGDLITEPFLPKLLTKVKGS
# B4: DENND3 (protein, UniProt A2RUS2 1-1198)
# chain: MRSLRKKREKPRPEQWKGLPGPPRAPEPEDVAVPGGVDLLTLPQLCFPGGVCVATEPKEDCVHFLVLTDVCGNRTYGVVAQYYRPLHDEYCFYNGKTHRECPGCFVPFAVCVVSRFPYYNSLKDCLSCLLALLKPCKDFEVDSHIKDFAAKLSLIPSPPPGPLHLVFNMKSLQIVLPARADPESPILDLDLHLPLLCFRPEKVLQILTCILTEQRIVFFSSDWALLTLVTECFMAYLYPLQWQHPFVPILSDQMLDFVMAPTSFLMGCHLDHFEEVSKEADGLVLINIDHGSITYSKSTDDNVDIPDVPLLAAQTFIQRVQSLQLHHELHAAHLLSSTDLKEGRAHRRSWQQKLNCQIQQTTLQLLVSIFRDVKNHLNYEHRVFNSEEFLKTRAPGDHQFYKQVLDTYMFHSFLKARLNRRMDAFAQMDLDTQSEEDRINGMLLSPRRPTVEKRASRKSSHLHVTHRRMVVSMPNLQDIAMPELAPRNSSLRLTDTAGCRGSSAVLNVTPKSPYTFKIPEIHFPLESKCVQAYHAHFVSMLSEAMCFLAPDNSLLLARYLYLRGLVYLMQGQLLNALLDFQNLYKTDIRIFPTDLVKRTVESMSAPEWEGAEQAPELMRLISEILDKPHEASKLDDHVKKFKLPKKHMQLGDFMKRVQESGIVKDASIIHRLFEALTVGQEKQIDPETFKDFYNCWKETEAEAQEVSLPWLVMEHLDKNECVCKLSSSVKTNLGVGKIAMTQKRLFLLTEGRPGYLEISTFRNIEEVRRTTTTFLLRRIPTLKIRVASKKEVFEANLKTECDLWHLMVKEMWAGKKLADDHKDPHYVQQALTNVLLMDAVVGTLQSPGAIYAASKLSYFDKMSNEMPMTLPETTLETLKHKINPSAGEAFPQAVDVLLYTPGHLDPAEKVEDAHPKLWCALSEGKVTVFNASSWTIHQHSFKVGTAKVNCMVMADQNQVWVGSEDSVIYIINVHSMSCNKQLTAHCSSVTDLIVQDGQEAPSNVYSCSMDGMVLVWNVSTLQVTSRFQLPRGGLTSIRLHGGRLWCCTGNSIMVMKMNGSLHQELKIEENFKDTSTSFLAFQLLPEEEQLWAACAGRSEVYIWSLKDLAQPPQRVPLEDCSEINCMIRVKKQVWVGSRGLGQGTPKGKIYVIDAERKTVEKELVAHMDTVRTLCSAEDRYVLSGSGREEGKVAIWKGE
# B5: DENND5B (protein, UniProt Q6ZUT9 1-1274)
# chain: MSGSCAAPGPGSGSSPAACRFAHYFVLCGIDADSGLEPDELAGENFDQSPLRRTFKSKVLAHYPQNIEWNPFDQDAVNMLCMPKGLSFRTQTDNKDPQFHSFIITREDGSRTYGFVLTFYEEVTSKQICTAMQTLYQMHNAEHYSSVYASSSCSMDSLASSLDEGDTTSLLKLQRYNSYDISRDTLYVSKSICLITPLPFMQACKKFLIQLYKAVTSQQPPPLPLESYIHNILYEVPLPPPGRSLKFYGVYEPVICQRPGPSELPLSDYPLREAFELLGLENLVQVFTCVLLEMQILLYSQDYQRLMTVAEGITTLLFPFQWQHVYVPILPASLLHFLDAPVPYLMGLQSKEGTDRSKLELPQEANLCFVDIDNHFIELPEEFPQFPNKVDFIQELSEVLVQFGIPPEGSLHCSESTSKLKNMVLKDLVNDKKNGNVCTNNISMYELLKGNETIARLQALAKRTGVAVEKMDLSASLGEKDKDLKLHCEEAELRDYQLNVQLREVFANRFTQMFADYEAFVIQTAQDMESWLTNREQMQNFDKASFLSDQPEPYLPFLSRFIETQMFATFIDNKIMSQWEEKDPLLRVFDTRIDKIRLYNVRAPTLRTSIYQKCSTLKEAAQSIEQRLMKMDHTAIHPHLLDMKIGQGKYEQGFFPKLQSDVLATGPTSNNRWVSRSATAQRRKERLRQHSEHVGLDNDLREKYMQEARSLGKNLRQPKLSDLSPAVIAQTNCKFVEGLLKECRMKTKRMLVEKMGHEAVELGHGEANITGLEENTLIASLCDLLERIWSHGLQVKQGKSALWSHLIQFQDREEKQEHLAESPVALGPERRKSDSGVMLPTLRVSLIQDMRHIQNMSEIKTDVGRARAWIRLSLEKKLLSQHLKQLLSNQPLTKKLYKRYAFLRCEEEREQFLYHLLSLNAVDYFCFTSVFTTIMIPYRSVIIPIKKLSNAIITSNPWICVSGELGDTGVMQIPKNLLEMTFECQNLGKLTTVQIGHDNSGLLAKWLVDCVMVRNEITGHTYRFPCGRWLGKGIDDGSLERILIGELMTSASDEDLVKQCRTPPQQKSPTTARRLSITSLTGKNNKPNAGQIQEGIGEAVNNIVKHFHKPEKERGSLTVLLCGENGLVAALEQVFHHGFKSARIFHKNVFIWDFIEKVVAYFETTDQILDNEDDVLIQKSSCKTFCHYVNAINTAPRNIGKDGKFQILVCLGTRDRLLPQWIPLLAECPAITRMYEESALLRDRMTVNSLIRILQTIQDFTIVLEGSLIKGVDV
# B6: PGD (enzyme, UniProt P52209 1-483)
# chain: MAQADIALIGLAVMGQNLILNMNDHGFVVCAFNRTVSKVDDFLANEAKGTKVVGAQSLKEMVSKLKKPRRIILLVKAGQAVDDFIEKLVPLLDTGDIIIDGGNSEYRDTTRRCRDLKAKGILFVGSGVSGGEEGARYGPSLMPGGNKEAWPHIKTIFQGIAAKVGTGEPCCDWVGDEGAGHFVKMVHNGIEYGDMQLICEAYHLMKDVLGMAQDEMAQAFEDWNKTELDSFLIEITANILKFQDTDGKHLLPKIRDSAGQKGTGKWTAISALEYGVPVTLIGEAVFARCLSSLKDERIQASKKLKGPQKFQFDGDKKSFLEDIRKALYASKIISYAQGFMLLRQAATEFGWTLNYGGIALMWRGGCIIRSVFLGKIKDAFDRNPELQNLLLDDFFKSAVENCQDSWRRAVSTGVQAGIPMPCFTTALSFYDGYRHEMLPASLIQAQRDYFGAHTYELLAKPGQFIHTNWTGHGGTVSSSSYNA
# B7: DAB2IP (protein, UniProt Q5VWQ8 1-1189)
# chain: MSAGGSARKSTGRSSYYYRLLRRPRLQRQRSRSRSRTRPARESPQERPGSRRSLPGSLSEKSPSMEPSAATPFRVTGFLSRRLKGSIKRTKSQPKLDRNHSFRHILPGFRSAAAAAADNERSHLMPRLKESRSHESLLSPSSAVEALDLSMEEEVVIKPVHSSILGQDYCFEVTTSSGSKCFSCRSAAERDKWMENLRRAVHPNKDNSRRVEHILKLWVIEAKDLPAKKKYLCELCLDDVLYARTTGKLKTDNVFWGEHFEFHNLPPLRTVTVHLYRETDKKKKKERNSYLGLVSLPAASVAGRQFVEKWYPVVTPNPKGGKGPGPMIRIKARYQTITILPMEMYKEFAEHITNHYLGLCAALEPILSAKTKEEMASALVHILQSTGKVKDFLTDLMMSEVDRCGDNEHLIFRENTLATKAIEEYLKLVGQKYLQDALGEFIKALYESDENCEVDPSKCSAADLPEHQGNLKMCCELAFCKIINSYCVFPRELKEVFASWRQECSSRGRPDISERLISASLFLRFLCPAIMSPSLFNLLQEYPDDRTARTLTLIAKVTQNLANFAKFGSKEEYMSFMNQFLEHEWTNMQRFLLEISNPETLSNTAGFEGYIDLGRELSSLHSLLWEAVSQLEQSIVSKLGPLPRILRDVHTALSTPGSGQLPGTNDLASTPGSGSSSISAGLQKMVIENDLSGLIDFTRLPSPTPENKDLFFVTRSSGVQPSPARSSSYSEANEPDLQMANGGKSLSMVDLQDARTLDGEAGSPAGPDVLPTDGQAAAAQLVAGWPARATPVNLAGLATVRRAGQTPTTPGTSEGAPGRPQLLAPLSFQNPVYQMAAGLPLSPRGLGDSGSEGHSSLSSHSNSEELAAAAKLGSFSTAAEELARRPGELARRQMSLTEKGGQPTVPRQNSAGPQRRIDQPPPPPPPPPPAPRGRTPPNLLSTLQYPRPSSGTLASASPDWVGPSTRLRQQSSSSKGDSPELKPRAVHKQGPSPVSPNALDRTAAWLLTMNAQLLEDEGLGPDPPHRDRLRSKDELSQAEKDLAVLQDKLRISTKKLEEYETLFKCQEETTQKLVLEYQARLEEGEERLRRQQEDKDIQMKGIISRLMSVEEELKKDHAEMQAAVDSKQKIIDAQEKRIASLDAANARLMSALTQLKERYSMQARNGISPTNPTKLQITENGEFRNSSNC
# Molecular target: FlagBirA*-NRAS (human) (UniProt P01111)
# Assay: proximity labelling; BioID: FlagBirA*-RAS bait in Flp-In T-REx 293 cells, 1 µg/mL tetracycline and 50 µM biotin for 24 h; modified RIPA lysis, Streptavidin Sepharose capture, trypsin, LC-MS/MS; hits at SAINT score ≥ 0.75; labelling radius ~10 nm
row,Binder,binding
1,B1,binds
2,B2,binds
3,B3,binds

# Molecular target: FlagBirA*-KRAS4B (human) (UniProt P01116)
# Assay: as above
row,Binder,binding
1,B4,binds
2,B5,binds
3,B6,binds
4,B7,binds

# — article PMC7696408
